Laboratory results from patent US9540694.
No constants are given. Whether binding was seen depends on the method and setting. For some of these results: In cells and extracts the contact can be indirect. Some results given as binding are weak or reduced against the parent protein; the word gives no strength. For some of these results: Where a sequence is shown, tags or fusion partners need not be part of it.

Protein sequences, listed by entry. Tags and fused reporters are not part of them. Lines headed by an entry give the natural chain unless they say otherwise; changes in a name come on top. Residues count along the entry.
UniProt P84022: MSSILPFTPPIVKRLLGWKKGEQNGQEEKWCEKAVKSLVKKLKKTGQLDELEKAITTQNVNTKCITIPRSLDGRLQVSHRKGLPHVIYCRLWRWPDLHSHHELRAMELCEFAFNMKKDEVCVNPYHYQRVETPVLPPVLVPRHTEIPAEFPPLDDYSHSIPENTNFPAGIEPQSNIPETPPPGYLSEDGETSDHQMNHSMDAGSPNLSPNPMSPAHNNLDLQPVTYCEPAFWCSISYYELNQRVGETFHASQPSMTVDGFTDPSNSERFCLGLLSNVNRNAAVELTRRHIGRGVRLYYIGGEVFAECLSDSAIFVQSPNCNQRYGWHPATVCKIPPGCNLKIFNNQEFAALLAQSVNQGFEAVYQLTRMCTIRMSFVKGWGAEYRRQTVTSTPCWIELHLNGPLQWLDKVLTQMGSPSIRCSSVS
Smad3: residues 2-425 of P84022

Legend:
Flag-tag Smad3 [1] = target: Flag-tag Smad3 (UniProt P84022); assay: co-immunoprecipitation (anti-myc IP, anti-flag blot) from COS1 cells
Flag-tag Smad3 [2] = target: Flag-tag Smad3 (UniProt P84022); assay: co-immunoprecipitation (anti-myc IP, anti-flag blot) from COS1 cells, with or without 4 ng/ml TGF-b
[3] = target: Smad3 fused with the C-terminal part of Yellow Fluorescent protein (YFP) (UniProt P84022); assay: Bimolecular Fluorescence Complementation in cells
Smad3 = Smad3 (UniProt P84022); assay: summary of coIP and BiFC

B1: myc-tag HEYL (protein, UniProt Q9NQ87 1-328, looked up, not shown: small tags and cut ends)
chain: MKRPKEPSGSDGESDGPIDVGQEGQLSQMARPLSTPSSSQMQARKKHRGIIEKRRRDRINSSLSELRRLVPTAFEKQGSSKLEKAEVLQMTVDHLKMLHATGGTGFFDARALAVDFRSIGFRECLTEVIRYLGVLEGPSSRADPVRIRLLSHLNSYAAEMEPSPTPTGPLAFPAWPWSFFHSCPGLPALSNQLAILGRVPSPVLPGVSSPAYPIPALRTAPLRRATGIILPARRNVLPSRGASSTRRARPLERPATPVPVAPSSRAARSSHIAPLLQSSSPTPPGPTGSAAYVAVPTPNSSSPGPAGRPAGAMLYHSWVSEITEIGAF
For B1, which binding (Flag-tag Smad3 [1]) is on record?
Its binding is “binds”.

And the binding (Flag-tag Smad3 [2])?
Its binding is “binds”.

B2: HEYL fused with the N-terminal part of Yellow Fluorescent protein (YFP) (protein, UniProt Q9NQ87 1-328, looked up, not shown: large carriers)
chain: MKRPKEPSGSDGESDGPIDVGQEGQLSQMARPLSTPSSSQMQARKKHRGIIEKRRRDRINSSLSELRRLVPTAFEKQGSSKLEKAEVLQMTVDHLKMLHATGGTGFFDARALAVDFRSIGFRECLTEVIRYLGVLEGPSSRADPVRIRLLSHLNSYAAEMEPSPTPTGPLAFPAWPWSFFHSCPGLPALSNQLAILGRVPSPVLPGVSSPAYPIPALRTAPLRRATGIILPARRNVLPSRGASSTRRARPLERPATPVPVAPSSRAARSSHIAPLLQSSSPTPPGPTGSAAYVAVPTPNSSSPGPAGRPAGAMLYHSWVSEITEIGAF
How did the binding [3] turn out when B2 was run?
Its binding is “binds”.

B3: HEYL (protein, UniProt Q9NQ87 1-328, looked up)
chain: MKRPKEPSGSDGESDGPIDVGQEGQLSQMARPLSTPSSSQMQARKKHRGIIEKRRRDRINSSLSELRRLVPTAFEKQGSSKLEKAEVLQMTVDHLKMLHATGGTGFFDARALAVDFRSIGFRECLTEVIRYLGVLEGPSSRADPVRIRLLSHLNSYAAEMEPSPTPTGPLAFPAWPWSFFHSCPGLPALSNQLAILGRVPSPVLPGVSSPAYPIPALRTAPLRRATGIILPARRNVLPSRGASSTRRARPLERPATPVPVAPSSRAARSSHIAPLLQSSSPTPPGPTGSAAYVAVPTPNSSSPGPAGRPAGAMLYHSWVSEITEIGAF
B3 was tested. Which binding (Smad3) did it give?
The binding was “binds”.
